Test results reported in publication PMC11316798, “Signaling by a bacterial phytochrome histidine kinase involves a conformational cascade reorganizing the dimeric photoreceptor” (Nature Communications, 2024).
Results are given in words; binding and its absence hold for the method and conditions named.

Target: T1, Pseudomonas syringae bacteriophytochrome photoreceptor BphP1 (PsBphP1), full length, assembled with biliverdin (Pseudomonas syringae) (UniProt Q885D3)
T1 sequence (chain, biliverdin (BV) covalently linked via a thioether linkage to Cys16): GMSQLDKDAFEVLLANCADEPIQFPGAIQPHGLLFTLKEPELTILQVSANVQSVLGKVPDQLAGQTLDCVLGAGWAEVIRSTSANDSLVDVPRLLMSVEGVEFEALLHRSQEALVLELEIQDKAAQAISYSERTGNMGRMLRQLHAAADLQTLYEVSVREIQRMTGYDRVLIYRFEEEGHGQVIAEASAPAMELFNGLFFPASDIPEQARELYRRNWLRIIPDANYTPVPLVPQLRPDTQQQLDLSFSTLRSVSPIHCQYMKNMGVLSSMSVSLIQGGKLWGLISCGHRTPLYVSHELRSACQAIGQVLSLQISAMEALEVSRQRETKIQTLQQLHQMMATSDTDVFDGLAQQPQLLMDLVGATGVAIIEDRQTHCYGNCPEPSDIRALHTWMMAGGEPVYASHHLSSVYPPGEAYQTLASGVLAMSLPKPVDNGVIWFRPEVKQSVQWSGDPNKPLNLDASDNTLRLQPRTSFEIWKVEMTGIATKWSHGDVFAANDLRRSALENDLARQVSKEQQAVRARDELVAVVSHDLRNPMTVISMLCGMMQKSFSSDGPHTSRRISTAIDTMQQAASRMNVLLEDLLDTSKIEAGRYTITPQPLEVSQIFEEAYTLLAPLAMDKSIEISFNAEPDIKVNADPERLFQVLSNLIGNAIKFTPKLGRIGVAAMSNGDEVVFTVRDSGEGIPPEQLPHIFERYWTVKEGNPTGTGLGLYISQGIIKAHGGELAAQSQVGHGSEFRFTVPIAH
Assay: SEC; PsBphP1 (3 mg mL^-1) as Pr or Pfr mixed with the response regulator (3 mg mL^-1), incubated 10 min, without ATP; Superdex 200 Increase, 22 °C, 175 mM KSCN buffer pH 7.5 with 5 mM MgCl2 and 0.2 mM Na2EDTA; both purified

## Deinococcus radiodurans BphR response regulator/phosphatase (DrBphR)
  binding: no binding (tested: 3 mg mL^-1 each)
